Experimental findings from publication PMC12040169 (PLOS Biology, 2025) are described below.

The list shows a part of the results.

For the test, the system named is T1, CTL2-GFP (C. trachomatis L2/434/Bu, GFP-expressing).
T1 construct: L2/434/Bu, GFP-expressing
Also noted: species or system HeLa; Intracellular C. trachomatis growth in HeLa cells, bulk GFP fluorescence relative to DMSO. The conditions noted are these: bulk GFP, single well; 28.5 h, 10 µM; inhibitor.
As for `N#Cc1ccccc1N1CCN(c2cncc(-c3ccc(CO)cc3)n2)CC1` [CBK037383], the “% of control remaining” value amounted to 112.619%.

On to `Fc1ccc(N2CCN(Cc3cccc(OCc4ccccc4)c3)CC2)cc1` [CBK261916], for which the “% of control remaining” value came out at 95.4061%.

With `O=C(C(Cc1ccccc1)N1C(=O)C2CCCCC2C1=O)N1CCN(Cc2ccc3c(c2)OCO3)CC1` (stereo not shown) [CBK264648], the “% of control remaining” value stood at 113.587%.

For the compound `COc1ccc(CC(=O)N2CC[C@H]3NC(=O)N(c4ccccc4)C(=O)[C@H]32)cc1` [CBK289278], the “% of control remaining” value worked out at 121.357%.

`FC(F)(F)c1cc(/C=C/c2cccs2)n[nH]1` [CBK020924]: the “% of control remaining” value is reported as 93.1903%.

Consider `N#CC1(NC(=O)CN2CCOC(Cn3cccn3)C2)CCCC1` (stereo not shown) [CBK304911], for which the “% of control remaining” value came out at 87.2745%.

As for `Cc1ccccc1C(=O)NCCCNC(=O)c1ccccn1` [CBK269172], the “% of control remaining” value turned out to be 153.128%.

Take `O=C(O)CCCn1c(-c2cccc([N+](=O)[O-])c2)nc(=S)c2c1CCCC2` [CBK265657]: the “% of control remaining” value came out at 100%.

As to `CC1CC1C(=O)N1CCCC(c2cc3cccnc3[nH]2)C1` (stereo not shown) [CBK282156], the “% of control remaining” value is 154.489%.

Consider `CCN(CC)CC(C)C(O)(c1ccccc1)c1ccccc1` (stereo not shown) [CBK012065C], for which the “% of control remaining” value was found to be 149.061%.

Turning to `COc1ccc(CCCC(=O)NCc2sc(-c3ccccc3)nc2C)cc1OC` [CBK092353], the “% of control remaining” value was found to be 99.9865%.

As to `COCCCn1c(=O)[nH]c2ncc(-c3ccc(O)cc3)nc21` [CBK064425], the “% of control remaining” value stood at 170.815%.

In the case of `O=C(c1ccco1)N1CCN(CC(=O)N2c3ccccc3OCC2c2ccccc2)CC1` (stereo not shown) [CBK239722], the “% of control remaining” value is given as 108.064%.

`NS(=O)(=O)c1ccc(CNC(=O)c2ccc(-c3ccc(OC(F)(F)F)cc3)nc2)cc1` [CBK156246]: the “% of control remaining” value was 115.465%.

As to `O=C(NCCNC(=O)c1ccccc1I)c1ccccn1` [CBK269357], the “% of control remaining” value was 152.527%.

With `O=C(Nc1ccc(C(=O)N2CCOCC2)cc1)c1cc(-c2cccnc2)nc2ccc(Cl)cc12` [CBK267725], the “% of control remaining” value came to 134.671%.

`O=C(c1ccc(Nc2ccnc3cc(C(F)(F)F)ccc23)cc1)N1CCC(O)(c2cccc(C(F)(F)F)c2)CC1` [CBK012467]: the “% of control remaining” value was determined as 110.004%.

For the compound `O=C(Nc1ccc(NC(=O)C2CC=CCC2C(=O)O)cc1Cl)C1CCCCC1` (stereo not shown) [CBK268772], the “% of control remaining” value is given as 132.711%.

As to `Cc1cc(O)ccc1Nc1cc(-c2ccc3c(c2)OCO3)ncn1` [CBK091053], the “% of control remaining” value came out at 205.067%.

Turning to `O=C(C1CCCCC1)N1CCC(c2n[nH]c3ncccc23)CC1` [CBK284905], the “% of control remaining” value was found to be 139.972%.

As to `COc1ccc(/C=C(\C)C(=O)NCc2ccc(OC3CCNCC3)cc2)cc1OC` [CBK038914T], the “% of control remaining” value stood at 105.633%.

For the compound `CC(=O)Oc1c(C)cc(CN(C)C(C)c2ccncc2)cc1C` (stereo not shown) [CBK306915], the “% of control remaining” value was determined as 142.187%.

Take `COc1ccc(CN2CCN(Cc3cc(Br)ccc3O)CC2)cc1OC` [CBK263632]: the “% of control remaining” value is recorded as 107.303%.

On to `O=S(=O)(Nc1ccc(-c2nnn[nH]2)cc1)c1cc(Cl)c(Cl)s1` [CBK154745], for which the “% of control remaining” value was determined as 84.8236%.

For `Cc1c(C(=O)Nc2ccc(S(=O)(=O)NCC3CCCO3)cc2)cccc1[N+](=O)[O-]` (stereo not shown) [CBK267533], the “% of control remaining” value stood at 143.639%.

Regarding `O=C(Cn1cccn1)NC(Cc1ccsc1)c1nccs1` (stereo not shown) [CBK284666], the “% of control remaining” value is listed as 76.6714%.

Take `Cc1ccccc1OCC(=O)Oc1ccc(-c2cnc3ccccc3n2)cc1` [CBK264703]: the “% of control remaining” value stood at 131.689%.

`O=C(O)Cc1nn(Cc2ccccc2)c(=O)c2ccccc12` [CBK262315]: the “% of control remaining” value came to 74.2006%.

Take `CN(C)Cc1ccccc1-n1cc(-c2cccnc2)nn1` [CBK113064]: the “% of control remaining” value is given as 100%.

On to `O=C(Nc1ccc2[nH]ccc2c1)c1ccc(Br)cc1Cl` [CBK159679], for which the “% of control remaining” value came to 74.109%.

As for `Nc1ncnc2[nH]c(SCc3nc4ccccc4n3Cc3ccccc3)nc12` [CBK264148], the “% of control remaining” value worked out at 112.894%.

Turning to `S=C(NCCN1CCCCC1)NCC1CCCO1` (stereo not shown) [CBK268129], the “% of control remaining” value turned out to be 76.7883%.

`Cc1c(C(=O)N2CCOCC2)sc2nc(-c3ccc(Cl)cc3)nn12` [CBK010863]: the “% of control remaining” value was 100.177%.

In the case of `Cn1cccc1C(=O)Nc1ccccc1N1CCNCC1` [CBK029450T], the “% of control remaining” value came to 101.195%.

For `CC1CCCN(c2ccc(NS(=O)(=O)c3ccc4[nH]c(=O)[nH]c(=O)c4c3)cc2)C1` (stereo not shown) [CBK286376], the “% of control remaining” value amounted to 135.23%.

On to `O=C(O)COc1ccccc1/C=C/c1cc(C(F)(F)F)[nH]c(=O)n1` [CBK287017], for which the “% of control remaining” value is reported as 132.919%.

On to `Clc1cc(NCCc2c[nH]c3ccccc23)n2nccc2n1` [CBK037218], for which the “% of control remaining” value stood at 167.237%.

For `O=C(NCC1CCCO1)C1CCCN(C(=O)c2cc(-c3ccccn3)[nH]n2)C1` (stereo not shown) [CBK210893], the “% of control remaining” value worked out at 102.239%.

With `Cc1cnc(CNC(=O)N2CCN(c3ccc(F)cc3)CC2)cn1` [CBK156392], the “% of control remaining” value is recorded as 164.776%.

Take `COCC1(C(=O)N2CC(=O)N(c3ccc(C)cc3)CC2C)CCC1` (stereo not shown) [CBK307606]: the “% of control remaining” value is 101.785%.

In the case of `CN(C)CCCN(Cc1cnn(-c2ccccc2)c1)Cc1ccco1` [CBK283040], the “% of control remaining” value is recorded as 90.6764%.

Turning to `CC(NC(=O)c1cnc2n(c1=O)CCS2)c1ccccc1` (stereo not shown) [CBK287372], the “% of control remaining” value came to 95.0225%.

Turning to `COC(=O)CCn1c(-c2cccnc2C)cc2cccnc21` [CBK282593], the “% of control remaining” value is recorded as 90.9167%.

In the case of `O=c1oc2ccccc2n1Cc1coc(-c2ccccc2)n1` [CBK296649], the “% of control remaining” value worked out at 109.3%.

With `O=c1c(I)coc2ccc(Cl)cc12` [CBK005364], the “% of control remaining” value worked out at 99.559%.

Regarding `CCc1nn2c(=O)cc(CN3C(=O)COc4cccnc43)nc2s1` [CBK306599], the “% of control remaining” value turned out to be 109.548%.

`O=C(Nc1ccc(F)cc1)c1ccccc1NS(=O)(=O)c1cc(Br)c(Cl)s1` [CBK045405]: the “% of control remaining” value turned out to be 61.4357%.

Regarding `Cc1cc(C)nc(N/C(=N\C(=S)Nc2cccc(Cl)c2C)NCc2cccnc2)n1` [CBK267254], the “% of control remaining” value came to 104.613%.

For `COC(=O)[C@H]1O[C@H](c2ccccc2)[C@@H]2C(=O)N(C)C(=O)[C@@H]21` [CBK009058], the “% of control remaining” value is 134.684%.

For the compound `CCCN(CCC)CCc1cccc2c1CCN2C(=O)c1cc2ccccc2s1` [CBK017871C], the “% of control remaining” value is 8.849%.

With `COCc1cn([C@H]2CO[C@H]3[C@@H]2OC[C@@H]3NC(=O)c2ccc(OC)cc2)nn1` [CBK289494], the “% of control remaining” value is recorded as 117.461%.

For `O=C(c1ccc(F)cc1)N1CCC(c2cc3cnccc3[nH]2)CC1` [CBK283445], the “% of control remaining” value is 125.099%.

As for `COc1ccc(C(c2ccccc2C)N(C)C(=O)C2CCN(C(C)=O)CC2)cn1` (stereo not shown) [CBK060490], the “% of control remaining” value is given as 111.307%.

As to `O=C(Nc1ccc(Cl)cc1)N1CCC(n2c(=O)[nH]c3ccccc32)CC1` [CBK149850], the “% of control remaining” value was 131.073%.

`Cc1cc(COC(=O)c2nn(-c3ccc(F)cc3)c3c2CCCC3)on1` [CBK295305]: the “% of control remaining” value is reported as 131.539%.

With `COc1ccnc(C(=O)N(Cc2ccccn2)CC2CCCO2)c1` (stereo not shown) [CBK307303], the “% of control remaining” value came out at 134.038%.

Turning to `O=C(O)c1ccc(COc2ccc3ccccc3c2/C=C2/NC(=O)N(c3ccccc3)C2=O)cc1` [CBK265124], the “% of control remaining” value is 101.905%.

For the compound `CCOC(=O)N1CCN(S(=O)(=O)c2cc(C(=O)O)c(Cl)cc2Cl)CC1` [CBK296975], the “% of control remaining” value was determined as 146.617%.

As for `CCOc1ccccc1-c1ccccc1NC(=O)c1ccc2c(c1)ncn2C1CC1` [CBK285808], the “% of control remaining” value is on record as 95.8836%.

Regarding `COc1ccc(-c2csc(NC(=O)NS(=O)(=O)c3ccc(C)cc3)n2)cc1` [CBK296117], the “% of control remaining” value was 133.491%.

For the compound `O=C(N/N=C/c1ccccc1)c1ccccn1` [CBK261640], the “% of control remaining” value is 124.359%.

As for `OC1(c2ccc(F)cc2)COC2(CCNCC2)C1` (stereo not shown) [CBK284214], the “% of control remaining” value came out at 138.296%.

With `CCN(CC)C(=O)C1CCCN(C(=O)NCC(c2ccccc2)c2ccccc2)C1` (stereo not shown) [CBK156145], the “% of control remaining” value is given as 59.4789%.

For the compound `OC(CNCc1cccs1)COc1cccc2c1CCCC2` (stereo not shown) [CBK002239], the “% of control remaining” value was determined as 106.582%.

As for `O=C(NNc1ccccc1)c1c(O)c2ccccc2oc1=O` [CBK260878], the “% of control remaining” value is listed as 100%.

Turning to `O=C(Nc1ccccc1C(=O)O)c1cccc(S(=O)(=O)NCc2ccccc2)c1` [CBK261258], the “% of control remaining” value is reported as 71.9043%.

Take `COc1ccccc1-c1ccc(CNC(Cc2ccsc2)c2nccs2)cc1` (stereo not shown) [CBK286315]: the “% of control remaining” value turned out to be 83.8114%.

As for `Cc1ccc(Nc2nc(N)nc(CN3CCCC3)n2)cc1` [CBK270163], the “% of control remaining” value is listed as 106.522%.

On to `c1ccc(CN2CCN(c3cncc(-c4cccs4)n3)CC2)nc1` [CBK065734], for which the “% of control remaining” value is recorded as 107.575%.

Take `O=C(c1cc(F)c(F)cc1F)N1CCC2(CCN(Cc3cc(=O)[nH]c(=O)[nH]3)C2)C1` (stereo not shown) [CBK132141]: the “% of control remaining” value amounted to 95.5884%.

As to `COc1ccc(-c2ncc(OCc3cccs3)nc2N)c(OC)c1` [CBK145088], the “% of control remaining” value is listed as 178.742%.

On to `COc1ccccc1-c1nccnc1OCCc1c[nH]c2ccccc12` [CBK106807], for which the “% of control remaining” value is 116.691%.

For `CC(C)c1ccc(S(=O)(=O)Nc2ccon2)cc1` [CBK044584], the “% of control remaining” value came to 121.096%.

For `CCNc1cncc(-c2cc(OC)c(OC)c(OC)c2)n1` [CBK065336], the “% of control remaining” value was determined as 111.023%.

On to `O=C(NCC1CCCN1)c1cc2cc(Cl)ccc2[nH]1` (stereo not shown) [CBK115917C], for which the “% of control remaining” value worked out at 89.7455%.

In the case of `Cc1cc(C)nc(N(C#N)CC(=O)c2ccc(Br)cc2)n1` [CBK266562], the “% of control remaining” value turned out to be 165.488%.

`Cc1cccc(CN(CCN)C(=O)NC2C[C@H]2c2ccccc2)n1` (stereo partly shown) [CBK046220C]: the “% of control remaining” value stood at 138.889%.

In the case of `CCOC(=O)/C(=N/Nc1cccc(C)c1)c1csc(N)n1` [CBK261059], the “% of control remaining” value was 74.4932%.

Regarding `COc1cc(/C=C2\C(=O)NN(c3ccccc3)C2=O)ccc1OCCOc1cc(C)ccc1C` [CBK263947], the “% of control remaining” value worked out at 132.011%.
